# Hit rate of the full screen: of about 320,000 compounds, about 22,000 (6.9%) were called active. The shares of active, inactive and inconclusive entries below differ from those in the screen. Calls follow the shape of the dose curve; as a rule, active = well fitted inhibition curve with a large enough effect; inconclusive = small, poorly fitted or top-dose-only effect, or another doubt; inactive = no such curve, though single readings can be large or run the other way. Potencies of inconclusive entries are doubtful fits and often do not repeat.
# Experiment: Primary qHTS for delayed death inhibitors of the malarial parasite plastid, 96 hour incubation
# Conditions: P. falciparum luciferase reporter growth; series mostly up to 28.7 µM
# Method in brief: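 Two-generation exposure (96 h) targets delayed-death phenotype. Reporter parasites carrying integrated firefly luciferase, in red cells at 2% hematocrit and 0.05% parasitemia final, kept at 37 C, 5% CO2; luminescence loss indicates inhibition.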
# Potency is read from the fitted curve at half-maximal effect.
row,Structure (SMILES),Potency
1,Cc1cccc(C(=O)NNC(=O)c2ccc(Cl)cc2)c1O,inactive
2,Nc1ccccc1NC(=O)NC(=O)c1ccccc1,inactive
3,Cc1ccc(NC(=O)CCNC(=O)c2ccc([N+](=O)[O-])cc2)cc1S(=O)(=O)N(C)C,"inconclusive: 10.4 µM [inhibitor, single point]"
4,Cc1sc2nc(SCC(=O)Nc3ccc(S(=O)(=O)NCCCC(=O)O)cc3)[nH]c(=O)c2c1C,"inconclusive: 18.5 µM [inhibitor, single point]"
5,CCOc1ccc(NC(=O)CSc2nc3cccnc3n2CC)cc1,"inconclusive: 18.5 µM [inhibitor, partial curve, poor fit]"
6,CC(C)n1c(O)c(N=Nc2ccccn2)c2ccccc21,"inconclusive: 26.2 µM [inhibitor, partial curve, poor fit]"
7,COc1ccc(OC)c(CCNC(=O)CCc2nnc3ccc(N4CCCCC4)nn23)c1,"inconclusive: 13.1 µM [inhibitor, single point]"
8,O=C(CNC(=O)c1ccccc1)OC(C(=O)c1ccccc1)c1ccccc1 (centres undefined),"inconclusive: 2.62 µM [inhibitor, single point]"
9,Cc1ccc(NC(=O)/C=C/c2ccc3c(c2)OCO3)cc1S(=O)(=O)N1CCOCC1,"inconclusive: 18.5 µM [inhibitor, single point]"
10,COc1ccc2nc3oc(C(=O)NCc4cccs4)cc3cc2c1,inactive
11,CN(CCOc1ccccc1)C(=O)C1CCN(C(=O)c2ccc(Cl)cc2)CC1,"inconclusive: 7.38 µM [inhibitor, partial curve, poor fit]"
12,COc1cccc(CNC(=O)Cn2cccc2)c1,"inconclusive: 13.1 µM [inhibitor, single point]"
13,CCOC(=O)Cc1csc(NC(=O)c2cc(OC)cc(OC)c2)n1,inactive
14,Cn1ccnc1SCc1ccc([N+](=O)[O-])cc1,"inconclusive: 4.15 µM [inhibitor, partial curve, poor fit]"
15,COc1ccc(C(=O)Nc2nc3ccccc3s2)c(OC)c1,active: 13.1 µM
16,COc1ccccc1NC(=O)Nc1ccc(-n2ccc(C(F)(F)F)n2)cc1,"inconclusive: 10.4 µM [inhibitor, partial curve, poor fit]"
17,CCCCn1c(NCCO)nc2ccccc21,inactive
18,Cc1c(OC(C(=O)O)c2ccccc2)ccc2c1oc(=O)c1ccccc12 (centres undefined),"inconclusive: 10.4 µM [inhibitor, single point]"
19,CCOn1c(=O)c(-c2cc(OC)ccc2OC)[n+]([O-])c2ccccc21,"inconclusive: 10.4 µM [inhibitor, single point]"
20,CCN1CCCc2cc(CN(CCN3CCOCC3)C(=S)Nc3ccccc3C)ccc21,"inconclusive: 9.28 µM [inhibitor, single point]"
21,COC(=NC(C)C)NC(C)C,inactive
22,Cc1cc(C(=O)N2CCCC(N3CCN(c4cccc(Cl)c4)CC3)C2)n(C)n1 (centres undefined),"inconclusive: 18.5 µM [inhibitor, single point]"
23,COc1ccc(C(=O)NCc2nnc(SCC(=O)c3ccccc3)n2C)cc1OC,"inconclusive: 2.62 µM [inhibitor, single point]"
24,COc1ccc(C)cc1N(C(=O)COc1cccc(F)c1)c1nc2ccccc2s1,"inconclusive: 2.94 µM [inhibitor, single point]"
25,CN(c1ccc(OCC(=O)N2CCCCC2)cc1)S(=O)(=O)c1cccs1,"inconclusive: 0.0738 µM [inhibitor, full curve, poor fit]"

row,Structure (SMILES),Potency
1,O=C(CNc1c(Br)cc(Br)cc1Br)NN=C1CCCCC1,"inconclusive: 18.5 µM [inhibitor, single point]"
2,COc1ccc(OCC2c3cc(OC)c(OC)cc3CCN2C(=O)C(C)C)cc1 (centres undefined),"inconclusive: 7.38 µM [inhibitor, partial curve, poor fit]"
3,O=C(NNC(=O)c1ccccc1Br)c1ccccc1Cl,"inconclusive: 1.85 µM [inhibitor, single point]"
4,CC(C)n1cc(/C=C/c2cc[n+](C)cc2)c2ccccc21,"inconclusive: 11.7 µM [inhibitor, single point]"
5,CSc1nsc(SCC(=O)Nc2ccc(O)c(C(=O)O)c2)n1,"inconclusive: 4.65 µM [inhibitor, partial curve, poor fit]"
6,CCn1c(N2CCC(Cc3ccccc3)CC2)nc2c1c(=O)[nH]c(=O)n2C,"inconclusive: 18.5 µM [inhibitor, single point]"
7,CCOc1ccccc1C(=O)NCC(=O)N1CCN(Cc2ccc3c(c2)OCO3)CC1,"inconclusive: 4.65 µM [inhibitor, partial curve, poor fit]"
8,O=C(CSc1nnnn1-c1ccc(Cl)c(C(=O)O)c1)NC(c1ccccc1)c1ccccc1,inactive
9,C/C(=N\NC(=O)Cc1ccc(Cl)cc1)c1ccc(F)cc1,"inconclusive: 1.65 µM [inhibitor, full curve]"
10,CCN(CCNC(=O)C1CCCN(Cc2nc(-c3ccc(OC)cc3)oc2C)C1)c1ccccc1 (centres undefined),inactive
11,COc1ccccc1OCc1cc(C(=O)N2CC3C[C@@H]4CC2C[C@H](C3)C4)no1,inactive
12,Clc1cccc(CSc2nc3ccncc3[nH]2)c1,"inconclusive: 18.5 µM [inhibitor, single point]"
13,Cc1cccc(NC(=O)CNC(=O)COC(=O)c2ccc(C(C)(C)C)cc2)c1C,inactive
14,O=C(COC(=O)/C=C/c1cccs1)Nc1cccc(S(=O)(=O)N2CCCC2)c1,"inconclusive: 3.7 µM [inhibitor, partial curve, poor fit]"
15,O=C(CCc1nnc(C2CCCCC2)o1)NCc1ccc(F)c(F)c1,"inconclusive: 11.7 µM [inhibitor, single point]"
16,Cc1ccccc1C(=O)N1CCc2c([nH]c3ccccc23)C1C(F)(F)F (centres undefined),"inconclusive: 10.4 µM [inhibitor, single point]"
17,OCC1(Cc2ccccc2Cl)CCN(C/C=C/c2ccccc2)CC1,inactive
18,COc1ccc(CN2C(=O)COc3ccccc32)cc1,"inconclusive: 18.5 µM [inhibitor, single point]"
19,Cc1cccc(Cc2nnc(CCC(=O)NCc3ccncc3C)o2)c1,"inconclusive: 11.7 µM [inhibitor, single point]"
20,CC(C)N=C1SCC(C)(/C=N/O)S1 (centres undefined),"inconclusive: 18.5 µM [inhibitor, single point]"
21,Cc1c(C)n(Cc2ccccc2)c2ccc(C(=O)NCCN3CCOCC3)cc12,inactive
22,CCCn1c2c(c(O)c(C(=O)NCc3ccccc3)c1=O)CCCC2,"inconclusive: 0.0928 µM [inhibitor, full curve, poor fit]"
23,CCOC(=O)N1CCc2c(sc3c2c(=O)n(Cc2ccccc2)c(=O)n3CC(=O)NCC2CCCO2)C1 (centres undefined),"inconclusive: 10.4 µM [inhibitor, single point]"
24,CNC(=O)CSc1nc2cc(S(=O)(=O)Nc3ccccc3OC)ccc2o1,inactive
25,CC1=C(C(=O)OCc2ccccc2)C(c2cccc(Br)c2)NC(=O)N1 (centres undefined),inactive

row,Structure (SMILES),Potency
1,COc1ccc(C2=NN(Cc3ccccc3)C3C(=O)NC(=O)C23)cc1 (centres undefined),"inconclusive: 1.47 µM [inhibitor, full curve, poor fit]"
2,O=C(NC1CCCCC1)C1CC(=O)N(Cc2ccccc2)C1 (centres undefined),inactive
3,Cc1nnc2ccc(-c3ccc(NC(=O)Cc4cccs4)cc3)nn12,active: 9.28 µM
4,CCN1CCN(C(=O)C(C)Sc2nnc3nc(C)cc(C)n23)CC1 (centres undefined),inactive
5,C(=N/Nc1nccs1)/c1cccnc1,"inconclusive: 18.5 µM [inhibitor, single point]"
6,O=C(c1ccc(COc2ccc(F)cc2)o1)n1cccn1,inactive
7,CSc1cccc(NC(=S)NC(=O)c2cccnc2)c1,"inconclusive: 18.5 µM [inhibitor, single point]"
8,Cc1oc(-c2ccccc2F)nc1CSCC(=O)NC1CCC(C)CC1 (centres undefined),inactive
9,CCCOP(=O)(c1ccc(N(C)C)cc1)C(O)c1ccncc1 (centres undefined),inactive
10,CCOC(=O)C1C(=O)CC(=O)CC1CC(C)SCC (centres undefined),inactive
11,CC(C(=O)NC1CCCCC1)N1CCN(S(=O)(=O)c2cccs2)CC1 (centres undefined),inactive
12,CC(C)C1COC(c2cccn2Cc2ccccc2Cl)=N1 (centres undefined),"inconclusive: 18.5 µM [inhibitor, single point]"
13,COc1ccc(/C=N/NC(=O)NC23CC4CC(CC(C4)C2)C3)c(OC)c1,"inconclusive: 10.4 µM [inhibitor, partial curve, poor fit]"
14,O=[N+]([O-])c1cc(-c2ccn[nH]2)ccc1Cl,inactive
15,COc1cccc(S(=O)(=O)Nc2ccc(C(=O)NCc3ccco3)cc2)c1,inactive
16,CC(NC(=O)C1CCN(S(=O)(=O)c2cccs2)CC1)c1cccc(Cl)c1 (centres undefined),"inconclusive: 10.4 µM [inhibitor, single point]"
17,CC(=O)c1cccc(NS(=O)(=O)c2ccc(C(=O)Nc3ccccc3)cc2)c1,inactive
18,Cc1ccccc1CNS(=O)(=O)c1c(C)[nH]c(C)c1C(=O)N1CCCCC1,"inconclusive: 18.5 µM [inhibitor, single point]"
19,Cc1cc(NC(=O)COc2cccnc2[N+](=O)[O-])no1,inactive
20,CCOC(=O)c1ccc(NC(=O)CSCC(=O)OCC(=O)c2ccccc2)cc1,"inconclusive: 0.0415 µM [inhibitor, full curve, poor fit]"
21,CCn1c(SCC(=O)Nc2ccc(C)cc2)nc2sc3c(c2c1=O)CCN(C)C3,active: 0.37 µM
22,CCc1nnc(SCC(=O)NC2CC2)n1CC,inactive
23,CCOc1ccc(CC(C(N)=O)C(N)=O)cc1CN(C)C,inactive
24,O=c1[nH]cnc2c1nc(SCc1ccccc1)n2C1OC(CO)C(O)C1O (centres undefined),"inconclusive: 11.7 µM [inhibitor, partial curve, poor fit]"

# — PubChem BioAssay AID504834 (National Center for Advancing Translational Sciences (NCATS), 2011)
